Data as given in US20250179106A1, “Metal Bis(Imino) Aryl Compounds and Methods Thereof” (EXXONMOBIL CHEMICAL PATENTS INC., priority 2022, published 2025).

Assay: Polymerizations in 2 L autoclave with supported catalyst
Conditions: supported catalyst (MAO/ES70 875 silica), 85° C., ethylene 220 psig, 1-hexene, H2, 60 minutes
Description: A 2 L autoclave was heated to 110° C. and purged with N2 for at least 30 minutes. The reactor was then charged with dry NaCl (150 g; Fisher, S271-10) and scavenger (trimethylaluminum on silica, 3 g) and heated for 30 minutes at 85° C. 1-Hexene (2.5 mL) and 10% H2 in N2 (120 SCCM) were added, and stirring was then commenced (450 RPM). Supported catalyst was injected into the reactor with ethylene at a pressure of 220 psig. After the injection, the reactor temperature was controlled at 85° C. and ethylene was allowed to flow into the reactor to maintain constant pressure. Both hydrogen and 1-hexene were fed into the reactor as constant ratios to ethylene flow, 0.5 mg/g and 0.1 g/g, respectively. Hydrogen and ethylene ratios were measured by on-line GC analysis. The polymerization was halted after 60 minutes by venting the reactor. The polymer was washed twice with water to remove the salt, then dried in air for at least two days.

| Structure (SMILES) | Catalyst Productivity (gP/gCat/h) |
| --- | --- |
| CCCC[Si](CCCC)(CCCC)CC(=Nc1c(C)cc(Cl)cc1C)c1cccc(C(C[Si](CCCC)(CCCC)CCCC)=Nc2c(C)cc(Cl)cc2C)n1.[Cl][Fe][Cl] [Catalyst 7] | 430 gP/gCat/h |
| CCCC[Si](CCCC)(CCCC)CC(=Nc1c(C)ccc(Cl)c1C)c1cccc(C(C[Si](CCCC)(CCCC)CCCC)=Nc2c(C)ccc(Cl)c2C)n1.[Cl][Fe][Cl] [Catalyst 8] | 391 gP/gCat/h |
| CCCC[Si](CCCC)(CCCC)CC(=Nc1c(C)cc(C)cc1Cl)c1cccc(C(C[Si](CCCC)(CCCC)CCCC)=Nc2c(C)cc(C)cc2Cl)n1.[Cl][Fe][Cl] [Catalyst 9] | 988 gP/gCat/h |
